For part of these data: For at least one compound, name, drawing or mass did not settle the structure. Some entries share one result that the patent states for a list of compounds.
Key:
human-derived GPR40 = target: T1, human-derived GPR40 (Homo sapiens, UniProt O14842); assay: Reactivity of fatty acid to human-derived GPR40, intracellular calcium by FLIPR in transfected CHO-K1 cells; format: cell-based; settings: added at 10^−5M-10^−6M, control-vector cells showed no response
T1 construct: expressed in transfected cells; host or cells: CHO-K1, transient transfection with lipofectamine
Method: Unless specifically indicated, CHO-K1 cell line was cultured using Ham's F-12 medium (Invitrogen) containing 10% fetal calf serum (Invitrogen). The day before transfection, 4.5×10^5 per 10 cm^2 of cells were seeded, and incubated at 37° C. for not less than 15 hrs in a CO2 incubator adjusted to 5% CO2 concentration. The transfection was performed using a lipofectamine reagent (Invitrogen) and according to the reagent attached method. When a 6-well plate was used for a culture plate, transfection was performed in the following manner. First two 1.5 ml volume tubes were prepared, and 100 μl of Opti-MEM-I medium (Invitrogen) was dispensed. […] The obtained cells were counted, diluted such that 5×10^4 cells were contained per 200 μl of the medium, dispensed to black walled 96-well plate (Costar) at 200 μl per well, incubated overnight in a CO2 incubator. Various test samples were added to CHO-K1 cells transiently expressing the receptor by the above-mentioned transfection step, and changes in the intracellular calcium concentration then was measured using FLIPR (Molecular Device). […] First, an assay buffer for adding fluorescence dye Fluo-3AM (DOJIN) to the cell, or washing the cell immediately before FLIPR assay was prepared. […] The mixture was added to an assay buffer (10.6 ml) supplemented with 105 μl of fetal calf serum to give a fluorescence dye solution. […]

The chains behind the UniProt entries cited, without tags or fusion partners.
UniProt O14842, whole entry: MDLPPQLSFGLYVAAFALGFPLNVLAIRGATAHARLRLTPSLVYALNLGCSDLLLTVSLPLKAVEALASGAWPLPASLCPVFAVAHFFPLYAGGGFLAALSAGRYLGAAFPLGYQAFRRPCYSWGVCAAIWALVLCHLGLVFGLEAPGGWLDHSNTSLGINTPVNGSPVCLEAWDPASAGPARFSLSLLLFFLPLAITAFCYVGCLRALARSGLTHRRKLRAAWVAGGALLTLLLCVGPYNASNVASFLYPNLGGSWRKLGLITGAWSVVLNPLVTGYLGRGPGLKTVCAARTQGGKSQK

[1] = test system: mouse pancreatic β cell line MIN6; assay: Glucose dependency of insulin secretion enhancing activity via GPR40 in MIN6; format: cell-based; settings: glucose 0, 5.5, 11, 22 mM in KRBH examined

SMILES	response (increase in intracellular calcium concentration) of CHO-K1 cell expressing the GPR40 receptor (human-derived GPR40)	glucose concentration at which insulin secretion enhancing activity was remarkable [1]
CC/C=C\C/C=C\C/C=C\C/C=C\C/C=C\CCCC(=O)O [eicosapentaenoic acid]	specifically responds	–
CCCCC/C=C\C/C=C\CCCCCCCC(=O)O [linoleic acid]	–	not less than 11 mM
CCCCCCCC/C=C\CCCCCCCC(=O)O [oleic acid]	–	not less than 11 mM

Source: patent US7960369B2, “Receptor function regulator” (Takeda Pharmaceutical Company Limited, priority 2002, dated 2011)
